doi:10.1101/2025.08.09.669456

The chains behind the UniProt entries cited, without tags or fusion partners. Where a name states a change or a piece, a line headed by the entry shows the natural chain unless it says otherwise.
UniProt P06681: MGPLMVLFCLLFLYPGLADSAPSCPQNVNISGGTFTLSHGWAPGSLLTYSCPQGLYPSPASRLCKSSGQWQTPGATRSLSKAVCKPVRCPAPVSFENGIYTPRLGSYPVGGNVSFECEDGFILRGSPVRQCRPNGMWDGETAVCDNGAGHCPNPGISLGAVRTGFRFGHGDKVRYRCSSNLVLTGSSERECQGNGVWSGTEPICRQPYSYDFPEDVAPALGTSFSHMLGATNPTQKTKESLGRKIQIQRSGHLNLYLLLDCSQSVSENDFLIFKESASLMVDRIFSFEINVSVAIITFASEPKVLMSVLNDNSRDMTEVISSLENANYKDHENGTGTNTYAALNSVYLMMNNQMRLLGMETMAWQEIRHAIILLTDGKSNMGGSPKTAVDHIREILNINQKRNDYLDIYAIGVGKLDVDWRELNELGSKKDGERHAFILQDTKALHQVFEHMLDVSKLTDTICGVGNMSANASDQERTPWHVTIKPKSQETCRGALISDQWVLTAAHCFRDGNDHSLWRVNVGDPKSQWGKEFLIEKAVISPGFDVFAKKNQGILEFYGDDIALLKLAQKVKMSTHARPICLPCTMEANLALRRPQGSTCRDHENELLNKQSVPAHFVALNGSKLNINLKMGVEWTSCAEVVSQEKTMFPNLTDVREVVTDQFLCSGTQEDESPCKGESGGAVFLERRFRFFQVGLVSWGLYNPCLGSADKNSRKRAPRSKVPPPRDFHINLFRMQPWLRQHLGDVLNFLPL
UniProt P01024: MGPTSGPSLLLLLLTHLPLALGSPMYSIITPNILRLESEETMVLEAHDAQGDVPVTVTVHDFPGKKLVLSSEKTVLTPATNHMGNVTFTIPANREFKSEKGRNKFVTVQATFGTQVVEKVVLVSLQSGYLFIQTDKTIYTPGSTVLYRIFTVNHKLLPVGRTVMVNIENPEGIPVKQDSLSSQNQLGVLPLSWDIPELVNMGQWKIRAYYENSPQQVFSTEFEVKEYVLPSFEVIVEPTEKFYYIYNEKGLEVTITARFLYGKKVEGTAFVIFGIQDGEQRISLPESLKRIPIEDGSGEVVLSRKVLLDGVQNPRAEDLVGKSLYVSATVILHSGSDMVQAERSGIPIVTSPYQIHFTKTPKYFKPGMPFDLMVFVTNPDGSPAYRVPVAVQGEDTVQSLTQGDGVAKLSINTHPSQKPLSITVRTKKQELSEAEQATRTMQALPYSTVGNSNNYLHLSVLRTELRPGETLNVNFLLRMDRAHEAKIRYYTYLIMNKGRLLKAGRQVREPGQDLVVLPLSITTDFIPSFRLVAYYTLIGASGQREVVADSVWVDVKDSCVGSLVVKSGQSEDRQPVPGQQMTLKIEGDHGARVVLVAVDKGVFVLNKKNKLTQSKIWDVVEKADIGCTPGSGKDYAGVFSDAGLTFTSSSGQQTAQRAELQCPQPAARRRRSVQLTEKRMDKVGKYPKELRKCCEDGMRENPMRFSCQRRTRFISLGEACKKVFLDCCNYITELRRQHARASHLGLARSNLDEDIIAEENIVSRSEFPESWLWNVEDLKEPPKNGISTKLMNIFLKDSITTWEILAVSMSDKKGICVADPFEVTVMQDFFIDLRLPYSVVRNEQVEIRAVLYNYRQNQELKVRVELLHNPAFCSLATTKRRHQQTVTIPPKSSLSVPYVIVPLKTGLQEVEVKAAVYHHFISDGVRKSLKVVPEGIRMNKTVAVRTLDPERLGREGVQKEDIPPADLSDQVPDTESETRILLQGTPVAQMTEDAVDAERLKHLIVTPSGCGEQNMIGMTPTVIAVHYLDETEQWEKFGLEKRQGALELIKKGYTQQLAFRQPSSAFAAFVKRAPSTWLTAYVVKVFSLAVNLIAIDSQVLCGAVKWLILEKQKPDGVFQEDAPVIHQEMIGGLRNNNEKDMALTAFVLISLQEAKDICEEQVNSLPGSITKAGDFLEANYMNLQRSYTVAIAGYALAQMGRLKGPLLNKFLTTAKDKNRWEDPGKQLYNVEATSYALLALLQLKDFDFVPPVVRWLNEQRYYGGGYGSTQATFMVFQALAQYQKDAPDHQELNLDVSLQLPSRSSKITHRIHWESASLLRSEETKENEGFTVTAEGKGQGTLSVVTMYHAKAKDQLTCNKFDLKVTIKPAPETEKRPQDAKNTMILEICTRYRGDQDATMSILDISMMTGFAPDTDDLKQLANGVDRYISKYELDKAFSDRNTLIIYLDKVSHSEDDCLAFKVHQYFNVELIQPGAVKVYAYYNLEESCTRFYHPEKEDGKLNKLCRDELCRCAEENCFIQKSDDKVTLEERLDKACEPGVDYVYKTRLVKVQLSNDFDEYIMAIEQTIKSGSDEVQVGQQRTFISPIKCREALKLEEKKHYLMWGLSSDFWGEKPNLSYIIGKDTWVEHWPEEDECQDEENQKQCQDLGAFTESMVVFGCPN

Molecular target: complement C2a (S679A), vWA–SP fragment of C2 (human) (UniProt P06681)
Experiment: cryo-EM structure

- binding: binds
Substance: complement C3 (from UniProt P01024 23-667; P01024 672-1663)

These are yes or no findings as the source states them, for the method shown. Binding can be weak; no strength is given.
